Data source: PubChem BioAssay AID1259308 (NCATS, 2017)
The deposit covers about 59,000 reagents; this is an unselected part. Over the whole deposit, about 1,510 (2.6%) got an active call. 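Calls use total luciferase alone and ignore viability, so some active siRNAs may act by altering cell number.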 The numbers tell different reagents against one gene apart. Not all columns of the deposit are shown. No sequences are given here.

Screen: 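Candidate targets for better recombinant protein yield in mammalian cells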 (primary screen)
Cells: human HEK293 embryonic kidney cells stably expressing firefly luciferase (HEK-CMV-Luc2-Hygro)
Reagents: single siRNA against human genes, 0.8 pmol siRNA per well
Timing: 72 h
Read-out: 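Reporter luminescence and viable-cell signal on separate replicate plates, given as percent of non-targeting control and median/MAD z-scores, plus per-cell luciferase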
Scale: total luciferase, z-score: higher = more reporter protein produced
Active means: 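Active when the median/MAD z-score for overall luciferase is greater than 3; a gene was taken forward for validation with new siRNAs if at least two of its three siRNAs passed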
Meaning of the calls: active = raised luciferase; inactive = no rise

RPL22L1 (ribosomal protein L22 like 1) #1 → total luciferase, z-score = 0.503; Outcome = inactive
RPL22L1 (ribosomal protein L22 like 1) #2 → total luciferase, z-score = 1.24; Outcome = inactive
RPL22L1 (ribosomal protein L22 like 1) #3 → total luciferase, z-score = -0.771; Outcome = inactive
MOB3C (MOB kinase activator 3C) #1 → total luciferase, z-score = 3.45; Outcome = active
MOB3C (MOB kinase activator 3C) #2 → total luciferase, z-score = -0.716; Outcome = inactive
MOB3C (MOB kinase activator 3C) #3 → total luciferase, z-score = -0.427; Outcome = inactive
NAIP (NLR family apoptosis inhibitory protein) #1 → total luciferase, z-score = -0.507; Outcome = inactive
NAIP (NLR family apoptosis inhibitory protein) #2 → total luciferase, z-score = 1.35; Outcome = inactive
NAIP (NLR family apoptosis inhibitory protein) #3 → total luciferase, z-score = 0.692; Outcome = inactive
NAIP (NLR family apoptosis inhibitory protein) #4 → total luciferase, z-score = 0.969; Outcome = inactive
NAIP (NLR family apoptosis inhibitory protein) #5 → total luciferase, z-score = 0.714; Outcome = inactive
NAIP (NLR family apoptosis inhibitory protein) #6 → total luciferase, z-score = -1.62; Outcome = inactive
MCTP2 (multiple C2 and transmembrane domain containing 2) #1 → total luciferase, z-score = 0.337; Outcome = inactive
MCTP2 (multiple C2 and transmembrane domain containing 2) #2 → total luciferase, z-score = -0.225; Outcome = inactive
MCTP2 (multiple C2 and transmembrane domain containing 2) #3 → total luciferase, z-score = 0.475; Outcome = inactive
CLLU1-AS1 (CLLU1 antisense RNA 1) #1 → total luciferase, z-score = -0.12; Outcome = inactive
CLLU1-AS1 (CLLU1 antisense RNA 1) #2 → total luciferase, z-score = 2.21; Outcome = inactive
CLLU1-AS1 (CLLU1 antisense RNA 1) #3 → total luciferase, z-score = -0.811; Outcome = inactive
SMG9 (SMG9 nonsense mediated mRNA decay factor) #1 → total luciferase, z-score = 0.982; Outcome = inactive
SMG9 (SMG9 nonsense mediated mRNA decay factor) #2 → total luciferase, z-score = -0.237; Outcome = inactive
SMG9 (SMG9 nonsense mediated mRNA decay factor) #3 → total luciferase, z-score = -0.61; Outcome = inactive
ADCK5 (aarF domain containing kinase 5) #1 → total luciferase, z-score = 0.00387; Outcome = inactive
ADCK5 (aarF domain containing kinase 5) #2 → total luciferase, z-score = 1.05; Outcome = inactive
ADCK5 (aarF domain containing kinase 5) #3 → total luciferase, z-score = 3.55; Outcome = active
ZNF415 (zinc finger protein 415) #1 → total luciferase, z-score = 0.817; Outcome = inactive
ZNF415 (zinc finger protein 415) #2 → total luciferase, z-score = 0.385; Outcome = inactive
ZNF415 (zinc finger protein 415) #3 → total luciferase, z-score = -0.131; Outcome = inactive
SMIM3 (small integral membrane protein 3) #1 → total luciferase, z-score = 0.358; Outcome = inactive
SMIM3 (small integral membrane protein 3) #2 → total luciferase, z-score = 0.292; Outcome = inactive
SMIM3 (small integral membrane protein 3) #3 → total luciferase, z-score = 0.221; Outcome = inactive
MYH1 (myosin heavy chain 1) #1 → total luciferase, z-score = 0.343; Outcome = inactive
MYH1 (myosin heavy chain 1) #2 → total luciferase, z-score = -0.921; Outcome = inactive
MYH1 (myosin heavy chain 1) #3 → total luciferase, z-score = -0.886; Outcome = inactive

Looked up above:
Value of MYH1 (myosin heavy chain 1) #2 in “Outcome”: inactive
Result of SMIM3 (small integral membrane protein 3) #3 in “Outcome”: inactive
